Assay results: article doi:10.1101/2022.05.18.492435

Protein sequences, listed by entry. Tags and fused reporters are not part of them.
UniProt Q9BSM1: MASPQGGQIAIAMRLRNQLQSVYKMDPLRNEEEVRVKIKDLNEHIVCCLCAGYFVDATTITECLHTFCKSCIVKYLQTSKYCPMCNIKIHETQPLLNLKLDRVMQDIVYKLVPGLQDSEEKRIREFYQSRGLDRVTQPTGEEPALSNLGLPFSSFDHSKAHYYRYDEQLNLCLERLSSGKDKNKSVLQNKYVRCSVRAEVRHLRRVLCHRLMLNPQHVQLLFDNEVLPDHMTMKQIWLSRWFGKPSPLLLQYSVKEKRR
UniProt P35226: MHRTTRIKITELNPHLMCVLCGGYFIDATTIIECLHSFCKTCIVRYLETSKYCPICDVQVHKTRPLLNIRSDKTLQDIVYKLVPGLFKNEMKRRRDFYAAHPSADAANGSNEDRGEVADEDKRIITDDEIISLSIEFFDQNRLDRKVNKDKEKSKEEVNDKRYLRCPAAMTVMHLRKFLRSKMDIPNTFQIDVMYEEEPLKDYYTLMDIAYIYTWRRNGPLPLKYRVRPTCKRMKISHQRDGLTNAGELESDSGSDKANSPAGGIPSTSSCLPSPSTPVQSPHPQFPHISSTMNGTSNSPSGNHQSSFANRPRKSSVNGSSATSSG
UniProt Q5H9F3: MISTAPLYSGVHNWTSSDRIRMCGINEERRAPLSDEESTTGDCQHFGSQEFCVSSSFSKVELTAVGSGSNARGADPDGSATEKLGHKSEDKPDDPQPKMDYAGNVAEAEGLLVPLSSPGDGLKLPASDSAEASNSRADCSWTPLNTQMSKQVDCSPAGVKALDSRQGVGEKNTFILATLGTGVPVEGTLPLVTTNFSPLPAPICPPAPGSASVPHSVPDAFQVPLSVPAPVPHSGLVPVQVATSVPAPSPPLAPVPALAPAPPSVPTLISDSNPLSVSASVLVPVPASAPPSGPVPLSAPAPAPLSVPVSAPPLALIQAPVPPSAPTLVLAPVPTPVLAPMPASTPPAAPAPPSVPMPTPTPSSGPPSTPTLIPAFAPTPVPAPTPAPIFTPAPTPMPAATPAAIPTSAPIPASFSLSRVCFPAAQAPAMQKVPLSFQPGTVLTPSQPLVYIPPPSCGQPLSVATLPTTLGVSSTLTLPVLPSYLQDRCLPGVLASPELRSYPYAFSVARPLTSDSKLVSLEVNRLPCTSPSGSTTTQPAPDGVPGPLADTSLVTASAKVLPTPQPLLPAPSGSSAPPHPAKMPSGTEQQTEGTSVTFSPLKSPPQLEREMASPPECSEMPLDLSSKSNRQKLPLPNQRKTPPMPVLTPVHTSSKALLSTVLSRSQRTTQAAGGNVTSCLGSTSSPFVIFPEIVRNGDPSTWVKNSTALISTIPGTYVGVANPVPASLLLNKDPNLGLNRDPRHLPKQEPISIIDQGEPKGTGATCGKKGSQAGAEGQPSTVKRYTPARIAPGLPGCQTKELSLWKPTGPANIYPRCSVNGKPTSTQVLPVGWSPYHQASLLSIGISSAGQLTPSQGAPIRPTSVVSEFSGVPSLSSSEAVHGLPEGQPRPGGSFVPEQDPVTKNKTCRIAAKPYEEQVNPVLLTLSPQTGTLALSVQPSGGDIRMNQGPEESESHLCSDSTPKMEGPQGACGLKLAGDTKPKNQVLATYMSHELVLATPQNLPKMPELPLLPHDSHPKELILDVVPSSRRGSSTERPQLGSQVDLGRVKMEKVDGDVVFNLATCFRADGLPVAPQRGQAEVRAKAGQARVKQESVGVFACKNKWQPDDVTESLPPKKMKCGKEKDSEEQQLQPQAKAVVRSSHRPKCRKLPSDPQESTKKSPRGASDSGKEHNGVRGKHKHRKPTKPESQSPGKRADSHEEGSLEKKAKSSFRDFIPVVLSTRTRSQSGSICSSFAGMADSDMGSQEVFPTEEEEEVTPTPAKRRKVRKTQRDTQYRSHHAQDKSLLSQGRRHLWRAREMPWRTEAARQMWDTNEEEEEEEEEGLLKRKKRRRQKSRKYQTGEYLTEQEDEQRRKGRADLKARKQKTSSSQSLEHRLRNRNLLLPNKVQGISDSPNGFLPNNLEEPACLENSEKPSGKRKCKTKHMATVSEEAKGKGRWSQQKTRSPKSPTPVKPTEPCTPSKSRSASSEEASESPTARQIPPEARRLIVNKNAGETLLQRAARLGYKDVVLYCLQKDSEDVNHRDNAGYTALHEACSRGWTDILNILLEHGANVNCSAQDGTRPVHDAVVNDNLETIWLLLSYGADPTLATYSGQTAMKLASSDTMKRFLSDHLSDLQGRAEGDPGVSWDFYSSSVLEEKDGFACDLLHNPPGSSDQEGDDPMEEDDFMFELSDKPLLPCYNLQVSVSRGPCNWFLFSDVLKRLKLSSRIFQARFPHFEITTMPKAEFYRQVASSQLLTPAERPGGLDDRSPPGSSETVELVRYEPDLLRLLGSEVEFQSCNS
UniProt P67870: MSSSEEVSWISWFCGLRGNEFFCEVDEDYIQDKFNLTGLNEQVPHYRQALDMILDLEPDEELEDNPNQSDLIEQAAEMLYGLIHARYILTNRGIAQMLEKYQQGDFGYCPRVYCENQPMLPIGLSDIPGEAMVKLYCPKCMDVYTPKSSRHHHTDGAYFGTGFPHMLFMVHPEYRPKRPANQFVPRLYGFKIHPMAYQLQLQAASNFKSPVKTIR
UniProt Q93009: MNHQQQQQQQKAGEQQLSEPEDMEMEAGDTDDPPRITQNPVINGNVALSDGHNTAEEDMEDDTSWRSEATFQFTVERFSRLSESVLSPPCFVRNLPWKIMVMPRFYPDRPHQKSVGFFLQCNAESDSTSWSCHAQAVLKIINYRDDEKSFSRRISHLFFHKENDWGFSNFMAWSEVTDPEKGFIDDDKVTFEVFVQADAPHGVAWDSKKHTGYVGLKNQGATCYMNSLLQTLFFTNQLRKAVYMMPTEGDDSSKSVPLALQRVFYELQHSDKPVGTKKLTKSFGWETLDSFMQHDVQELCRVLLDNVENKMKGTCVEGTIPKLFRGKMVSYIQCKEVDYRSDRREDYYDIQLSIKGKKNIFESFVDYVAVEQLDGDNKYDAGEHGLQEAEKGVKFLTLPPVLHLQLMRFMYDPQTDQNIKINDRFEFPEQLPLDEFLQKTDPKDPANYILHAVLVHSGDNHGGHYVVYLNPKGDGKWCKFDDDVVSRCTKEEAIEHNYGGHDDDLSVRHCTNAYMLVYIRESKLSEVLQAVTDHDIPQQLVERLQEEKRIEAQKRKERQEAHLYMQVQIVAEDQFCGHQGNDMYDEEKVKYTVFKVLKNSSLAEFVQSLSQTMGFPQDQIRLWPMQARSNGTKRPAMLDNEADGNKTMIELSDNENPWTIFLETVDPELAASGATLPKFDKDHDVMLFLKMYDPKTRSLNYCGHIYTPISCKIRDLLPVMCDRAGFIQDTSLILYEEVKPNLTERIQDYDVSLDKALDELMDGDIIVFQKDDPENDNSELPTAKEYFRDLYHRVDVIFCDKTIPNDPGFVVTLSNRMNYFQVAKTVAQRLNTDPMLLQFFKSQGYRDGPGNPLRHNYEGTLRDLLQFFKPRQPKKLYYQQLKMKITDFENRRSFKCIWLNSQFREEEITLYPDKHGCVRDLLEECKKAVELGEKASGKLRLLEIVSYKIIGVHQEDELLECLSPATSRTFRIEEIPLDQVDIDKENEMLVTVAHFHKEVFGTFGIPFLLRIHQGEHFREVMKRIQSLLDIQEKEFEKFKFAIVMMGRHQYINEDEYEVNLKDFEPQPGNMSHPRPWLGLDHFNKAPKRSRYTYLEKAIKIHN
UniProt Q9HC52: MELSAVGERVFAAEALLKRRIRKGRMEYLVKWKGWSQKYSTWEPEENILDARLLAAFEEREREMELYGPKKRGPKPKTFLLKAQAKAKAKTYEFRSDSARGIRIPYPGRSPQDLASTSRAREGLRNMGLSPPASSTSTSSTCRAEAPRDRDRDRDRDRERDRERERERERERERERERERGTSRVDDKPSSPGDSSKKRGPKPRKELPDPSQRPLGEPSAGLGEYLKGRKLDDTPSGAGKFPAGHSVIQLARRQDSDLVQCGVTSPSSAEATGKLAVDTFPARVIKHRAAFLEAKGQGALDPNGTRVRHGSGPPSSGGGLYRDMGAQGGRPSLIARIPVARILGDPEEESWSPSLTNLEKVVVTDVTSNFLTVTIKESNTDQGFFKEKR
UniProt Q9UQR0: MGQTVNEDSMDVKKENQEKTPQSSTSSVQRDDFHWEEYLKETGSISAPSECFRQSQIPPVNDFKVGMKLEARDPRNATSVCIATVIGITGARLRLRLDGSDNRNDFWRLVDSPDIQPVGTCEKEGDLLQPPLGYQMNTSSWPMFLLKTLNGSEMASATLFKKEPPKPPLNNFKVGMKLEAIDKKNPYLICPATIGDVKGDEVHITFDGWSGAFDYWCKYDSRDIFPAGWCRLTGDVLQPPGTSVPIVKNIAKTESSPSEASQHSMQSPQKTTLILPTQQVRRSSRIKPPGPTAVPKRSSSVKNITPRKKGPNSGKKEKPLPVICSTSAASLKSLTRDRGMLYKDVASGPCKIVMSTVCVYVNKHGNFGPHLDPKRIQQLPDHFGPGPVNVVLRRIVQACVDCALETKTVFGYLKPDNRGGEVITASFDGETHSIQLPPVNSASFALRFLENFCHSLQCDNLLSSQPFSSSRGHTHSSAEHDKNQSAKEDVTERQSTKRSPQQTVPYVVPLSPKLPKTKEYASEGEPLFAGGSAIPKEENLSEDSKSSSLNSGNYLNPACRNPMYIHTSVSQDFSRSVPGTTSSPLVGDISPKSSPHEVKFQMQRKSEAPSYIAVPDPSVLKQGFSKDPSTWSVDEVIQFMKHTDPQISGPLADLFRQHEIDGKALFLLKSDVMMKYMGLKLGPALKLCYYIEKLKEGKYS
UniProt Q06587: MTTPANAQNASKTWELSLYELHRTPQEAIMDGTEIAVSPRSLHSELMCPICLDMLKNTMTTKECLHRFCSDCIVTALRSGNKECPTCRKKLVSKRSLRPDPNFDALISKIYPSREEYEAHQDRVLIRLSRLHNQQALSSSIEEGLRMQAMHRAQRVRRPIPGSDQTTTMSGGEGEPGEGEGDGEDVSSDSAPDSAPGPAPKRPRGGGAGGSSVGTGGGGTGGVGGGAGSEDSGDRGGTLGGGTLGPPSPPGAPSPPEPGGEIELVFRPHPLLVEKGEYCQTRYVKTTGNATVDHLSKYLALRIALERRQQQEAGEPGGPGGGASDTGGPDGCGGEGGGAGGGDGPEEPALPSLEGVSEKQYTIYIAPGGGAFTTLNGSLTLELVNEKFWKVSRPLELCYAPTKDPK
UniProt Q96GD3: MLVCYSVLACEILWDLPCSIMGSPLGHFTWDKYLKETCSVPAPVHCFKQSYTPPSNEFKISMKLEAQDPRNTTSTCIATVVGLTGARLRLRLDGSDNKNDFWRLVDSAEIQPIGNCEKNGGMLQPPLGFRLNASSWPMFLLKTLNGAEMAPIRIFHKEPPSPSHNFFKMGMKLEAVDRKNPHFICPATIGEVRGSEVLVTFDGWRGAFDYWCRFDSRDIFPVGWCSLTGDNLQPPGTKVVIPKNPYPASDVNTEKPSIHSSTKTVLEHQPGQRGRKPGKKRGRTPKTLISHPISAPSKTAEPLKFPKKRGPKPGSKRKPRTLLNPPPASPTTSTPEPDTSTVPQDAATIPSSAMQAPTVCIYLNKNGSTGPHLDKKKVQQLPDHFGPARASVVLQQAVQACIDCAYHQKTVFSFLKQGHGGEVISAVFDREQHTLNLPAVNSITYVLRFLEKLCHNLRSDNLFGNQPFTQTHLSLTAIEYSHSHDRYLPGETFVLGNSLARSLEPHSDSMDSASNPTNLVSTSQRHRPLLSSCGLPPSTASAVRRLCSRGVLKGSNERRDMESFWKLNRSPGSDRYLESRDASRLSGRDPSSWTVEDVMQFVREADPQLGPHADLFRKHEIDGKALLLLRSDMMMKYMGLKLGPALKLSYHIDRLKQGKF
UniProt Q99496: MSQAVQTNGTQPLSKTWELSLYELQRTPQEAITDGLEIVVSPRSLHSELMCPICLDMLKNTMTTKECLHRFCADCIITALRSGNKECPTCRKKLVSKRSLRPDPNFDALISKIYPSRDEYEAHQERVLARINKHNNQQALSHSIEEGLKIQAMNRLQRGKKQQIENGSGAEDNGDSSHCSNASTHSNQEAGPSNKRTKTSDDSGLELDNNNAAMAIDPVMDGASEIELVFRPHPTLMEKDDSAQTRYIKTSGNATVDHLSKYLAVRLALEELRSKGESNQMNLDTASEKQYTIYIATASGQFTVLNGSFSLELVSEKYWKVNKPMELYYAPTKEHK
UniProt P63208: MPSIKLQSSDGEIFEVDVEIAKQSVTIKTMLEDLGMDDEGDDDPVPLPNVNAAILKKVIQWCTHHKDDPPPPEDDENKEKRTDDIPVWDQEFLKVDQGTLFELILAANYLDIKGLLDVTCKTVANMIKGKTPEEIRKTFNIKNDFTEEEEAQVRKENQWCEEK

T1: PCGF2 (human (endogenous in NT2)) (UniProt P35227)
T1 sequence: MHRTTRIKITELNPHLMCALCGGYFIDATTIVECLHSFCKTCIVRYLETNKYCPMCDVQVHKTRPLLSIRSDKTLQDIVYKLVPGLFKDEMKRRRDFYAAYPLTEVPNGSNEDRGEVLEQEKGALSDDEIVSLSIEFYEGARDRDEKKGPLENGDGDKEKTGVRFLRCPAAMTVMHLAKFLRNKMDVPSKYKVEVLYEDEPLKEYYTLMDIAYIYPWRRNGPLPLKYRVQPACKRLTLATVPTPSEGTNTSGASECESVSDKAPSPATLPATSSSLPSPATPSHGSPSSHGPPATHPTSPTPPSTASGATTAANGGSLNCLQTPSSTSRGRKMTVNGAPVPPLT


Tests used:
Experiment in all cases: affinity purification with mass spectrometry
[1] = target: PCGF1 (human (endogenous in NT2)) (UniProt Q9BSM1)
[2] = target: PCGF4 (human (endogenous in NT2)) (UniProt P35226)
[3] = target: T1, PCGF2 (human (endogenous in NT2))

| Molecule | binding [1] | binding [2] | binding [3] |
| --- | --- | --- | --- |
| BCORL1 (from UniProt Q5H9F3 1-1785) | binds |  |  |
| CSNK2B (from UniProt P67870 1-215) | binds | binds | binds |
| USP7 (from UniProt Q93009 1-1102) | binds | binds | binds |
| CBX8 (from UniProt Q9HC52 1-389) |  |  | binds |
| SCML2 (from UniProt Q9UQR0 1-700) |  | binds | binds |
| RING1A (from UniProt Q06587 1-406) | binds | binds | binds |
| SCMH1 (from UniProt Q96GD3 1-660) |  | binds | binds |
| RNF2 (from UniProt Q99496 1-336) |  |  | binds |
| SKP1 (from UniProt P63208 1-163) | binds |  |  |
| CNOT1 (from UniProt A5YKK6 1-2376) | binds |  |  |
| PHC2 (protein, UniProt Q8IXK0 1-858) MENELPVPHTSSSACATSSTSGASSSSGCNNSSSGGSGRPTGPQISVYSGIPDRQTVQVIQQALHRQPSTAAQYLQQMYAAQQQHLMLQTAALQQQHLSSAQLQSLAAVQQASLVSNRQGSTSGSNVSAQAPAQSSSINLAASPAAAQLLNRAQSVNSAAASGIAQQAVLLGNTSSPALTASQAQMYLRAQMLIFTPTATVATVQPELGTGSPARPPTPAQVQNLTLRTQQTPAAAASGPTPTQPVLPSLALKPTPGGSQPLPTPAQSRNTAQASPAGAKPGIADSVMEPHKKGDGNSSVPGSMEGRAGLSRTVPAVAAHPLIAPAYAQLQPHQLLPQPSSKHLQPQFVIQQQPQPQQQQPPPQQSRPVLQAEPHPQLASVSPSVALQPSSEAHAMPLGPVTPALPLQCPTANLHKPGGSQQCHPPTPDTGPQNGHPEGVPHTPQRRFQHTSAVILQLQPASPPQQCVPDDWKEVAPGEKSVPETRSGPSPHQQAIVTAMPGGLPVPTSPNIQPSPAHETGQGIVHALTDLSSPGMTSGNGNSASSIAGTAPQNGENKPPQAIVKPQILTHVIEGFVIQEGAEPFPVGRSSLLVGNLKKKYAQGFLPEKLPQQDHTTTTDSEMEEPYLQESKEEGAPLKLKCELCGRVDFAYKFKRSKRFCSMACAKRYNVGCTKRVGLFHSDRSKLQKAGAATHNRRRASKASLPPLTKDTKKQPTGTVPLSVTAALQLTHSQEDSSRCSDNSSYEEPLSPISASSSTSRRRQGQRDLELPDMHMRDLVGMGHHFLPSEPTKWNVEDVYEFIRSLPGCQEIAEEFRAQEIDGQALLLLKEDHLMSAMNIKLGPALKIYARISMLKDS |  | binds | binds |
| KDM2B (protein, UniProt Q8NHM5 1-1336) MAGPQMGGSAEDHPPRKRHAAEKQKKKTVIYTKCFEFESATQRPIDRQRYDENEDLSDVEEIVSVRGFSLEEKLRSQLYQGDFVHAMEGKDFNYEYVQREALRVPLIFREKDGLGIKMPDPDFTVRDVKLLVGSRRLVDVMDVNTQKGTEMSMSQFVRYYETPEAQRDKLYNVISLEFSHTKLEHLVKRPTVVDLVDWVDNMWPQHLKEKQTEATNAIAEMKYPKVKKYCLMSVKGCFTDFHIDFGGTSVWYHVFRGGKIFWLIPPTLHNLALYEEWVLSGKQSDIFLGDRVERCQRIELKQGYTFFIPSGWIHAVYTPVDSLVFGGNILHSFNVPMQLRIYEIEDRTRVQPKFRYPFYYEMCWYVLERYVYCVTQRSHLTQEYQRESMLIDAPRKPSIDGFSSDSWLEMEEEACDQQPQEEEEKDEEGEGRDRAPKPPTDGSTSPTSTPSEDQEALGKKPKAPALRFLKRTLSNESEESVKSTTLAVDYPKTPTGSPATEVSAKWTHLTEFELKGLKALVEKLESLPENKKCVPEGIEDPQALLEGVKNVLKEHADDDPSLAITGVPVVTWPKKTPKNRAVGRPKGKLGPASAVKLAANRTTAGARRRRTRCRKCEACLRTECGECHFCKDMKKFGGPGRMKQSCIMRQCIAPVLPHTAVCLVCGEAGKEDTVEEEEGKFNLMLMECSICNEIIHPGCLKIKESEGVVNDELPNCWECPKCNHAGKTGKQKRGPGFKYASNLPGSLLKEQKMNRDNKEGQEPAKRRSECEEAPRRRSDEHSKKVPPDGLLRRKSDDVHLRKKRKYEKPQELSGRKRASSLQTSPGSSSHLSPRPPLGSSLSPWWRSSLTYFQQQLKPGKEDKLFRKKRRSWKNAEDRMALANKPLRRFKQEPEDELPEAPPKTRESDHSRSSSPTAGPSTEGAEGPEEKKKVKMRRKRRLPNKELSRELSKELNHEIQRTENSLANENQQPIKSEPESEGEEPKRPPGICERPHRFSKGLNGTPRELRHQLGPSLRSPPRVISRPPPSVSPPKCIQMERHVIRPPPISPPPDSLPLDDGAAHVMHREVWMAVFSYLSHQDLCVCMRVCRTWNRWCCDKRLWTRIDLNHCKSITPLMLSGIIRRQPVSLDLSWTNISKKQLSWLINRLPGLRDLVLSGCSWIAVSALCSSSCPLLRTLDVQWVEGLKDAQMRDLLSPPTDNRPGQMDNRSKLRNIVELRLAGLDITDASLRLIIRHMPLLSKLHLSYCNHVTDQSINLLTAVGTTTRDSLTEINLSDCNKVTDQCLSFFKRCGNICHIDLRYCKQVTKEGCEQFIAEMSVSVQFGQVEEKLLQKLS | binds | binds | binds |
| PHC1 (protein, UniProt P78364 1-1004) METESEQNSNSTNGSSSSGGSSRPQIAQMSLYERQAVQALQALQRQPNAAQYFHQFMLQQQLSNAQLHSLAAVQQATIAASRQASSPNTSTTQQQTTTTQASINLATTSAAQLISRSQSVSSPSATTLTQSVLLGNTTSPPLNQSQAQMYLRPQLGNLLQVNRTLGRNVPLASQLILMPNGAVAAVQQEVPSAQSPGVHADADQVQNLAVRNQQASAQGPQMQGSTQKAIPPGASPVSSLSQASSQALAVAQASSGATNQSLNLSQAGGGSGNSIPGSMGPGGGGQAHGGLGQLPSSGMGGGSCPRKGTGVVQPLPAAQTVTVSQGSQTEAESAAAKKAEADGSGQQNVGMNLTRTATPAPSQTLISSATYTQIQPHSLIQQQQQIHLQQKQVVIQQQIAIHHQQQFQHRQSQLLHTATHLQLAQQQQQQQQQQQQQQQPQATTLTAPQPPQVPPTQQVPPSQSQQQAQTLVVQPMLQSSPLSLPPDAAPKPPIPIQSKPPVAPIKPPQLGAAKMSAAQQPPPHIPVQVVGTRQPGTAQAQALGLAQLAAAVPTSRGMPGTVQSGQAHLASSPPSSQAPGALQECPPTLAPGMTLAPVQGTAHVVKGGATTSSPVVAQVPAAFYMQSVHLPGKPQTLAVKRKADSEEERDDVSTLGSMLPAKASPVAESPKVMDEKSSLGEKAESVANVNANTPSSELVALTPAPSVPPPTLAMVSRQMGDSKPPQAIVKPQILTHIIEGFVIQEGAEPFPVGCSQLLKESEKPLQTGLPTGLTENQSGGPLGVDSPSAELDKKANLLKCEYCGKYAPAEQFRGSKRFCSMTCAKRYNVSCSHQFRLKRKKMKEFQEANYARVRRRGPRRSSSDIARAKIQGKCHRGQEDSSRGSDNSSYDEALSPTSPGPLSVRAGHGERDLGNPNTAPPTPELHGINPVFLSSNPSRWSVEEVYEFIASLQGCQEIAEEFRSQEIDGQALLLLKEEHLMSAMNIKLGPALKICAKINVLKET |  | binds | binds |
| CBX4 (protein, UniProt O00257 1-560) MELPAVGEHVFAVESIEKKRIRKGRVEYLVKWRGWSPKYNTWEPEENILDPRLLIAFQNRERQEQLMGYRKRGPKPKPLVVQVPTFARRSNVLTGLQDSSTDNRAKLDLGAQGKGQGHQYELNSKKHHQYQPHSKERAGKPPPPGKSGKYYYQLNSKKHHPYQPDPKMYDLQYQGGHKEAPSPTCPDLGAKSHPPDKWAQGAGAKGYLGAVKPLAGAAGAPGKGSEKGPPNGMMPAPKEAVTGNGIGGKMKIVKNKNKNGRIVIVMSKYMENGMQAVKIKSGEVAEGEARSPSHKKRAADERHPPADRTFKKAAGAEEKKVEAPPKRREEEVSGVSDPQPQDAGSRKLSPTKEAFGEQPLQLTTKPDLLAWDPARNTHPPSHHPHPHPHHHHHHHHHHHHAVGLNLSHVRKRCLSETHGEREPCKKRLTARSISTPTCLGGSPAAERPADLPPAAALPQPEVILLDSDLDEPIDLRCVKTRSEAGEPPSSLQVKPETPASAAVAVAAAAAPTTTAEKPPAEAQDEPAESLSEFKPFFGNIIITDVTANCLTVTFKEYVTV |  | binds | binds |
| CNOT4 (protein, UniProt O95628 1-575) MSRSPDAKEDPVECPLCMEPLEIDDINFFPCTCGYQICRFCWHRIRTDENGLCPACRKPYPEDPAVYKPLSQEELQRIKNEKKQKQNERKQKISENRKHLASVRVVQKNLVFVVGLSQRLADPEVLKRPEYFGKFGKIHKVVINNSTSYAGSQGPSASAYVTYIRSEDALRAIQCVNNVVVDGRTLKASLGTTKYCSYFLKNMQCPKPDCMYLHELGDEAASFTKEEMQAGKHQEYEQKLLQELYKLNPNFLQLSTGSVDKNKNKVTPLQRYDTPIDKPSDSLSIGNGDNSQQISNSDTPSPPPGLSKSNPVIPISSSNHSARSPFEGAVTESQSLFSDNFRHPNPIPSGLPPFPSSPQTSSDWPTAPEPQSLFTSETIPVSSSTDWQAAFGFGSSKQPEDDLGFDPFDVTRKALADLIEKELSVQDQPSLSPTSLQNSSSHTTTAKGPGSGFLHPAAATNANSLNSTFSVLPQRFPQFQQHRAVYNSFSFPGQAARYPWMAFPRNSIMHLNHTANPTSNSNFLDLNLPPQHNTGLGGIPVAGEEEVKVSTMPLSTSSHSLQQGQQPTSLHTTVA | binds |  |  |

These are yes or no findings as the source states them, for the method shown. Binding seen in cells or lysates may run through a third protein. These calls come from enrichment with a bait or labelling near it, and not all partners need be listed.
